Drawing on PMC5608970, this text covers binding for five molecules.

These are yes or no findings as the source states them, for the method shown. In cells and extracts the contact can be indirect. Some binding calls cover weakened binding; strength is not graded here.

The target of assay [1] is FZD9 (human) (UniProt O00144). In words: FRET or BRET; type-1 BRET: GFP2- and Rluc-tagged copies of the receptor co-expressed in HEK293T cells, acceptor:donor ratio varied at constant expression; data fitted to monomer versus dimer models (R^2); read 24 hr (some 48 hr) post-transfection.
For assay [2], the target named is FZD9 (human) (UniProt O00144). In words: FRET or BRET; type-3 BRET: GFP2- and Rluc-tagged copies (12:1 pGFP2:pRluc) in HEK293T cells with untagged competitor or blank pU vector (2:1 pU:(pGFP2+pRluc)); p^diff tells whether BRETeff is affected by the competitor.
In assay [3] the target is FZD10 (human) (UniProt Q9ULW2). In words: FRET or BRET; type-1 BRET: GFP2- and Rluc-tagged copies of the receptor co-expressed in HEK293T cells, acceptor:donor ratio varied at constant expression; data fitted to monomer versus dimer models (R^2); read 24 hr (some 48 hr) post-transfection.
Assay [4] addresses FZD10 (human) (UniProt Q9ULW2). In words: FRET or BRET; type-3 BRET: GFP2- and Rluc-tagged copies (12:1 pGFP2:pRluc) in HEK293T cells with untagged competitor or blank pU vector (2:1 pU:(pGFP2+pRluc)); p^diff tells whether BRETeff is affected by the competitor.
The target in assay [5] is leucine-rich repeat-containing receptor LGR5 (human) (UniProt O75473). Briefly: FRET or BRET; type-1 BRET: GFP2- and Rluc-tagged copies of the receptor co-expressed in HEK293T cells, acceptor:donor ratio varied at constant expression; data fitted to monomer versus dimer models (R^2); read 24 hr (some 48 hr) post-transfection. Background: BRET reads energy transfer from a luciferase to a nearby fluorophore.

Assay [6] has the same target. In words: FRET or BRET; type-3 BRET: GFP2- and Rluc-tagged copies (12:1 pGFP2:pRluc) in HEK293T cells with untagged competitor or blank pU vector (2:1 pU:(pGFP2+pRluc)); p^diff tells whether BRETeff is affected by the competitor.
For assay [7], the target named is CarB (Dictyostelium discoideum) (UniProt P34907). In words: FRET or BRET; type-1 BRET: GFP2- and Rluc-tagged copies of the receptor co-expressed in HEK293T cells, acceptor:donor ratio varied at constant expression; data fitted to monomer versus dimer models (R^2); read 24 hr (some 48 hr) post-transfection.
For assay [8] the target is unchanged. In words: FRET or BRET; type-3 BRET: GFP2- and Rluc-tagged copies (12:1 pGFP2:pRluc) in HEK293T cells with untagged competitor or blank pU vector (2:1 pU:(pGFP2+pRluc)); p^diff tells whether BRETeff is affected by the competitor.
For assay [9], the target named is CrlC (Dictyostelium discoideum) (UniProt Q6UUW6). In words: FRET or BRET; type-1 BRET: GFP2- and Rluc-tagged copies of the receptor co-expressed in HEK293T cells, acceptor:donor ratio varied at constant expression; data fitted to monomer versus dimer models (R^2); read 24 hr (some 48 hr) post-transfection.
Assay [10] has the same target. Briefly: FRET or BRET; type-3 BRET: GFP2- and Rluc-tagged copies (12:1 pGFP2:pRluc) in HEK293T cells with untagged competitor or blank pU vector (2:1 pU:(pGFP2+pRluc)); p^diff tells whether BRETeff is affected by the competitor.

B1: FZD9 (receptor, UniProt O00144 23-591)
chain: LEIGRFDPERGRGAAPCQAVEIPMCRGIGYNLTRMPNLLGHTSQGEAAAELAEFAPLVQYGCHSHLRFFLCSLYAPMCTDQVSTPIPACRPMCEQARLRCAPIMEQFNFGWPDSLDCARLPTRNDPHALCMEAPENATAGPAEPHKGLGMLPVAPRPARPPGDLGPGAGGSGTCENPEKFQYVEKSRSCAPRCGPGVEVFWSRRDKDFALVWMAVWSALCFFSTAFTVLTFLLEPHRFQYPERPIIFLSMCYNVYSLAFLIRAVAGAQSVACDQEAGALYVIQEGLENTGCTLVFLLLYYFGMASSLWWVVLTLTWFLAAGKKWGHEAIEAHGSYFHMAAWGLPALKTIVILTLRKVAGDELTGLCYVASTDAAALTGFVLVPLSGYLVLGSSFLLTGFVALFHIRKIMKTGGTNTEKLEKLMVKIGVFSILYTVPATCVIVCYVYERLNMDFWRLRATEQPCAAAAGPGGRRDCSLPGGSVPTVAVFMLKIFMSLVVGITSGVWVWSSKTFQTWQSLCYRKIAAGRARAKACRAPGSYGRGTHCHYKAPTVVLHMTKTDPSLENPTHL
For the molecule B1, the binding entry with FZD9 (human) [1] and in the assay with FZD9 (human) [2] was “binds” in each case.

B2: FZD10 (receptor, UniProt Q9ULW2 21-581)
chain: ISSMDMERPGDGKCQPIEIPMCKDIGYNMTRMPNLMGHENQREAAIQLHEFAPLVEYGCHGHLRFFLCSLYAPMCTEQVSTPIPACRVMCEQARLKCSPIMEQFNFKWPDSLDCRKLPNKNDPNYLCMEAPNNGSDEPTRGSGLFPPLFRPQRPHSAQEHPLKDGGPGRGGCDNPGKFHHVEKSASCAPLCTPGVDVYWSREDKRFAVVWLAIWAVLCFFSSAFTVLTFLIDPARFRYPERPIIFLSMCYCVYSVGYLIRLFAGAESIACDRDSGQLYVIQEGLESTGCTLVFLVLYYFGMASSLWWVVLTLTWFLAAGKKWGHEAIEANSSYFHLAAWAIPAVKTILILVMRRVAGDELTGVCYVGSMDVNALTGFVLIPLACYLVIGTSFILSGFVALFHIRRVMKTGGENTDKLEKLMVRIGLFSVLYTVPATCVIACYFYERLNMDYWKILAAQHKCKMNNQTKTLDCLMAASIPAVEIFMVKIFMLLVVGITSGMWIWTSKTLQSWQQVCSRRLKKKSRRKPASVITSGGIYKKAQHPQKTHHGKYEIPAQSPTCV
With B2, the binding result in the assay with FZD10 (human) [3] and in the assay with FZD10 (human) [4] was “binds” throughout.

B3: leucine-rich repeat-containing receptor LGR5 (receptor, UniProt O75473 22-907)
chain: GSSPRSGVLLRGCPTHCHCEPDGRMLLRVDCSDLGLSELPSNLSVFTSYLDLSMNNISQLLPNPLPSLRFLEELRLAGNALTYIPKGAFTGLYSLKVLMLQNNQLRHVPTEALQNLRSLQSLRLDANHISYVPPSCFSGLHSLRHLWLDDNALTEIPVQAFRSLSALQAMTLALNKIHHIPDYAFGNLSSLVVLHLHNNRIHSLGKKCFDGLHSLETLDLNYNNLDEFPTAIRTLSNLKELGFHSNNIRSIPEKAFVGNPSLITIHFYDNPIQFVGRSAFQHLPELRTLTLNGASQITEFPDLTGTANLESLTLTGAQISSLPQTVCNQLPNLQVLDLSYNLLEDLPSFSVCQKLQKIDLRHNEIYEIKVDTFQQLLSLRSLNLAWNKIAIIHPNAFSTLPSLIKLDLSSNLLSSFPITGLHGLTHLKLTGNHALQSLISSENFPELKVIEMPYAYQCCAFGVCENAYKISNQWNKGDNSSMDDLHKKDAGMFQAQDERDLEDFLLDFEEDLKALHSVQCSPSPGPFKPCEHLLDGWLIRIGVWTIAVLALTCNALVTSTVFRSPLYISPIKLLIGVIAAVNMLTGVSSAVLAGVDAFTFGSFARHGAWWENGVGCHVIGFLSIFASESSVFLLTLAALERGFSVKYSAKFETKAPFSSLKVIILLCALLALTMAAVPLLGGSKYGASPLCLPLPFGEPSTMGYMVALILLNSLCFLMMTIAYTKLYCNLDKGDLENIWDCSMVKHIALLLFTNCILNCPVAFLSFSSLINLTFISPEVIKFILLVVVPLPACLNPLLYILFNPHFKEDLVSLRKQTYVWTRSKHPSLMSINSDDVEKQSCDSTQALVTFTSSSITYDLPPSSVPSPAYPVTESCHLSSVAFVPCL
With B3, the binding entry in assay [5] and in [6] was “binds” each time.

B4: CarB (receptor, UniProt P34907 1-375)
chain: MTIMSDIIAQRTILLIADFSSIIGCSLVLIGFWRLKLLRNHITKIISLFCATSLFKDVISTIITLLYKPDQTESGFPCYLHAIVITFGSLACWLWTLMLSFSIYNLIVRREPEPERFEKFYFCLCYGLPLISTIVMLSTHIIQPVGGWCWIGDNYDGYRFGLFYGPFFFIWGTSAILVGLTSKYTYSVIRSSVSDNKDKHMTYQFKLINYIVVFLVCWVFAIVNRILNGLNQFPTVPNVLHTYFSVSHGFYASITFIYNNPLMWRYFGAKFLLIFSKFGLFVQAQQRLELNKNNNNPSPIMRSKNALDNGADSSVVELPCLSKADSLSLDAENNIETPKENENQNHHHHHHHHHHHNHYNNNNNNNNINNKNDMI
As to B4, the binding result in assay [7] and in assay [8] was “no binding” throughout.

B5: CrlC (receptor, UniProt Q6UUW6 1-361)
chain: MGIEESQICNPSDREFLSVDILNIVTSSLSLMGSALTIISYIWKKVRRHRIQKQQIQQQQQQIEKGGLLSSSITIGNGSSHYGGIGGGGGSGNGTGIGAIGGPHGTYKQPTSKLPLLIFMLSIADFFTSFFIIISQSYLINNSKSYSTPYSPDLKIHFSPCIILRAIIQFFFLSTFFWTTCISYYLFHQLSSPGEEKYLLAIFNVVSWGIPFAISMVITMTNSIVVNSDGWCEVAKPMELSLWFLPLFLCLLVCSIYYFRLRRLFRSKFEYRLQINDRLKQLDSTISRRLTLYIVVFVICWLPDVIQHFISFFSKCTFFPLLILQNILTPSQGFWNFWIYSYTNKIARFTPSNDENKRLLQ
Turning to B5, the binding entry in assay [9] and in assay [10] was “no binding” throughout.
